PubChem BioAssay AID602196 – INSERM – 2012
Screen: 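Genes whose knock-down alters cisplatin killing of lung cancer cells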. System: human A549 lung cancer cells. Knock-down reagent: siRNA pair against human genes. Time to read-out: 48 h transfection before cisplatin; time from cisplatin to read-out not stated. Challenge: cisplatin at a dose killing half of control-siRNA cells; exact dose and duration not given. Read-out: 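Shift in cisplatin death relative to control siRNA, from -50 (all cells die) to +50 (no cells die); siRNAs harmful on their own scored 0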. Direction: two-siRNA summed score (-2 to +2): higher = both siRNAs protect from cisplatin killing; -2 means both sensitise. Rule for the call: 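Each siRNA scores 0 if harmful alone by LDH or WST-1, otherwise +1 if it reduces and -1 if it increases cisplatin killing; a gene is active when both siRNAs agree (sum +2 or -2)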. Calls: active = both siRNAs shift cisplatin killing the same way; inactive = no consistent shift, or siRNA harmful alone.
Here is a random part of about 23,000 reagents. In the full data, 455 (2%) were called active. 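Active includes both protection and sensitisation; some change values fall well beyond the stated -50 to +50 range.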 Further read-outs or replicates are left out here. Not stated in the record: the amount of reagent.

For LOC200159, the entry reads two-siRNA summed score (-2 to +2) = -1; inactive. With knock-down of LOC442423, the screen gave two-siRNA summed score (-2 to +2) = 0; inactive. Depletion of TMEM176B resulted in: two-siRNA summed score (-2 to +2) = 0; inactive. For LOC441135, the values are two-siRNA summed score (-2 to +2) = 1; inactive. CYP39A1 scored two-siRNA summed score (-2 to +2) = -1; inactive. For DPM1 the deposit lists two-siRNA summed score (-2 to +2) = 0; inactive.

For FLJ36032, the entry reads two-siRNA summed score (-2 to +2) = 0; inactive. After knock-down of SH2D1B, the screen gave two-siRNA summed score (-2 to +2) = 0; inactive. Depletion of MGC13275 came out at: two-siRNA summed score (-2 to +2) = 2; active. Depletion of GALNT7 came out at: two-siRNA summed score (-2 to +2) = 0; inactive. Depletion of CADM2 gave: two-siRNA summed score (-2 to +2) = 1; inactive. For LOC441732, the entry reads two-siRNA summed score (-2 to +2) = 0; inactive.

After knock-down of TMEM18, the record shows two-siRNA summed score (-2 to +2) = 1; inactive. Against LINC01591 the deposit lists two-siRNA summed score (-2 to +2) = 0; inactive. Against LANCL2, the values are two-siRNA summed score (-2 to +2) = 0; inactive. After knock-down of SMAD9, the screen gave two-siRNA summed score (-2 to +2) = 0; inactive. Against LOC400955 the deposit lists two-siRNA summed score (-2 to +2) = 0; inactive. PGGHG scored two-siRNA summed score (-2 to +2) = 0; inactive.

ARHGAP11A gave two-siRNA summed score (-2 to +2) = 0; inactive. For MIR137HG, the values are two-siRNA summed score (-2 to +2) = 0; inactive. For ZC3H14, the entry reads two-siRNA summed score (-2 to +2) = 0; inactive.

A stretch from the list above, for reference:
ARHGAP11A → two-siRNA summed score (-2 to +2) = 0; Call = inactive
MIR137HG → two-siRNA summed score (-2 to +2) = 0; Call = inactive
ZC3H14 → two-siRNA summed score (-2 to +2) = 0; Call = inactive
